Reference: article PMC9103046
No constants are given. Whether binding was seen depends on the method and setting. In cells and extracts the contact can be indirect. Some results given as binding are weak or reduced against the parent protein; the word gives no strength.

T1: St13 (mouse (endogenous in pancreatic acinar cells of PRSS1Tg mice)) (UniProt Q99L47)
T1 sequence: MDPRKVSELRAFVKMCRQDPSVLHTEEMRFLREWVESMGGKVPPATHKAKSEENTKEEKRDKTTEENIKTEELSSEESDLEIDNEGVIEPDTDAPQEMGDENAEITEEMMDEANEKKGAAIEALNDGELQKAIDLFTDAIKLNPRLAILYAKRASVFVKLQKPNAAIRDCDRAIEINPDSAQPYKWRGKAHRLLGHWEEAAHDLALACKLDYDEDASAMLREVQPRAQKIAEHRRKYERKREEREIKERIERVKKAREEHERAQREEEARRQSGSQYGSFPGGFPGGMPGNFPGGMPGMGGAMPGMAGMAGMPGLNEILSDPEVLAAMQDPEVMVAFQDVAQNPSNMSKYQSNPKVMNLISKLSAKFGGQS

T2: Stromal cell-derived factor 2-like 1 (Sdf2l1) (mouse (endogenous in pancreatic acinar cells of PRSS1Tg mice)) (UniProt Q9ESP1)
T2 sequence: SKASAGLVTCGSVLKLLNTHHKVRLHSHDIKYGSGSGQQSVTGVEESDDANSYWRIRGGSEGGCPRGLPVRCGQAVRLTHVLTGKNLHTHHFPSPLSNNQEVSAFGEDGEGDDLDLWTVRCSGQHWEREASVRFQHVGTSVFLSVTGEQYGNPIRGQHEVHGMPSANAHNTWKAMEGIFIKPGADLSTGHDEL

B1: Stromal cell-derived factor 2-like 1 (Sdf2l1) (protein, UniProt Q9ESP1 29-221)
chain: T2 sequence
B2: St13 (protein, UniProt Q99L47 1-371)
chain: T1 sequence

Experiments:
[1] = target: T1, St13 (mouse (endogenous in pancreatic acinar cells of PRSS1Tg mice)); experiment: co-IP; acinar cell-derived proteins precipitated with anti-St13 or anti-Sdf2l1 antibodies
[2] = target: T2, Stromal cell-derived factor 2-like 1 (Sdf2l1) (mouse (endogenous in pancreatic acinar cells of PRSS1Tg mice)); experiment: as above

Binder | binding [1] | binding [2]
B1 | binds | 
B2 |  | binds
